# Test results taken from the supplement of paper PMC8728848.
# Some of the results follow.
# What was measured:
# Assay in all cases: glycan array binding signal (z-score within array); higher = stronger binding
# Settings in all cases: glycan notation: IUPAC condensed, linker removed
# Kdn(a2-3)Gal(b1-4)Glc = molecular target: Kdn(a2-3)Gal(b1-4)Glc
# How it was run: (§1)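 The binding signal is a Z-score computed within each array and averaged over linkers. Arrays of the same protein sequence at different concentrations or buffers were also averaged together. Data originate from 3228 arrays in the Consortium for Functional Glycomics database, kept only where the protein sequence was available.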
# Kdn(a2-3)Gal(b1-4)GlcNAc = molecular target: Kdn(a2-3)Gal(b1-4)GlcNAc
# How it was run: as §1
# [1] = molecular target: Kdn(a2-3)Gal(b1-4)[Fuc(a1-3)]GlcNAc
# How it was run: as §1
# Kdn(a2-6)Gal(b1-4)GlcNAc = molecular target: Kdn(a2-6)Gal(b1-4)GlcNAc
# How it was run: as §1
# [2] = molecular target: Man(a1-2)Man(a1-2)Man(a1-3)Man
# How it was run: as §1
# [3] = molecular target: Man(a1-2)Man(a1-2)Man(a1-6)[Man(a1-3)]Man
# How it was run: as §1
# Man(a1-2)Man(a1-3)Man = molecular target: Man(a1-2)Man(a1-3)Man
# How it was run: as §1
# [4] = molecular target: Man(a1-2)Man(a1-3)[Man(a1-2)Man(a1-6)]Man
# How it was run: as §1
# [5] = molecular target: Man(a1-2)Man(a1-3)[Man(a1-2)Man(a1-6)]Man(a1-6)[Man(a1-2)Man(a1-2)Man(a1-3)]Man
# How it was run: as §1
# [6] = molecular target: Man(a1-2)Man(a1-3)[Man(a1-2)Man(a1-6)]Man(a1-6)[Man(a1-2)Man(a1-2)Man(a1-3)]Man(b1-4)GlcNAc(b1-4)GlcNAc
# How it was run: as §1
# [7] = molecular target: Man(a1-2)Man(a1-3)[Man(a1-6)]Man(a1-6)[Man(a1-2)Man(a1-3)]Man(b1-4)GlcNAc(b1-4)GlcNAc
# How it was run: as §1
# [8] = molecular target: Man(a1-2)Man(a1-6)[Man(a1-3)]Man(a1-6)[Man(a1-2)Man(a1-2)Man(a1-3)]Man
# How it was run: as §1
# [9] = molecular target: Man(a1-2)Man(a1-6)[Man(a1-3)]Man(a1-6)[Man(a1-2)Man(a1-2)Man(a1-3)]Man(b1-4)GlcNAc(b1-4)GlcNAc
# How it was run: as §1
# Man(a1-3)[Man(a1-6)]Man = molecular target: Man(a1-3)[Man(a1-6)]Man
# How it was run: as §1
# [10] = molecular target: Man(a1-3)[Man(a1-6)]Man(a1-6)[Man(a1-2)Man(a1-3)]Man(b1-4)GlcNAc(b1-4)GlcNAc
# How it was run: as §1
# [11] = molecular target: Man(a1-3)[Man(a1-6)]Man(a1-6)[Man(a1-3)]Man
# How it was run: as §1
# [12] = molecular target: Man(a1-3)[Man(a1-6)]Man(a1-6)[Man(a1-3)]Man(b1-4)GlcNAc(b1-4)GlcNAc
# How it was run: as §1
# [13] = molecular target: Man(a1-3)[Man(a1-6)]Man(b1-4)GlcNAc(b1-4)GlcNAc
# How it was run: as §1
# [14] = molecular target: Man(a1-3)[Man(a1-6)]Man(b1-4)GlcNAc(b1-4)[Fuc(a1-6)]GlcNAc
# How it was run: as §1
# Man(a1-6)Man = molecular target: Man(a1-6)Man
# How it was run: as §1
# Man(b1-4)GlcNAc = molecular target: Man(b1-4)GlcNAc
# How it was run: as §1
# MurNAc(b1-4)GlcNAc = molecular target: MurNAc(b1-4)GlcNAc
# How it was run: as §1
# Neu5Ac(a2-3)Gal = molecular target: Neu5Ac(a2-3)Gal
# How it was run: as §1
# [15] = molecular target: Neu5Ac(a2-3)Gal(b1-3)GalNAc
# How it was run: as §1
# [16] = molecular target: Neu5Ac(a2-3)Gal(b1-3)GalNAc(b1-3)Gal(a1-4)Gal(b1-4)Glc
# How it was run: as §1
# [17] = molecular target: Neu5Ac(a2-3)Gal(b1-3)GalNAc(b1-4)[Neu5Ac(a2-3)]Gal(b1-4)Glc
# How it was run: as §1
# [18] = molecular target: Neu5Ac(a2-3)Gal(b1-3)GalNAc(b1-4)[Neu5Ac(a2-8)Neu5Ac(a2-3)]Gal(b1-4)Glc
# How it was run: as §1
# [19] = molecular target: Neu5Ac(a2-3)Gal(b1-3)GalNAc6S
# How it was run: as §1
# [20] = molecular target: Neu5Ac(a2-3)Gal(b1-3)GlcNAc
# How it was run: as §1
# [21] = molecular target: Neu5Ac(a2-3)Gal(b1-3)GlcNAc(b1-2)Man
# How it was run: as §1
# [22] = molecular target: Neu5Ac(a2-3)Gal(b1-3)GlcNAc(b1-2)Man(a1-3)[GlcNAc(b1-4)][Neu5Ac(a2-3)Gal(b1-3)GlcNAc(b1-2)Man(a1-6)]Man(b1-4)GlcNAc(b1-4)GlcNAc
# How it was run: as §1
# [23] = molecular target: Neu5Ac(a2-3)Gal(b1-3)GlcNAc(b1-2)Man(a1-3)[Neu5Ac(a2-3)Gal(b1-3)GlcNAc(b1-2)Man(a1-6)]Man(b1-4)GlcNAc(b1-4)GlcNAc
# How it was run: as §1
# [24] = molecular target: Neu5Ac(a2-3)Gal(b1-3)GlcNAc(b1-3)Gal(b1-3)GlcNAc
# How it was run: as §1
# [25] = molecular target: Neu5Ac(a2-3)Gal(b1-3)GlcNAc(b1-3)Gal(b1-4)GlcNAc
# How it was run: as §1
# [26] = molecular target: Neu5Ac(a2-3)Gal(b1-3)GlcNAc(b1-3)GalNAc
# How it was run: as §1
# [27] = molecular target: Neu5Ac(a2-3)Gal(b1-3)GlcNAc(b1-4)Gal(b1-4)Glc
# How it was run: as §1
# [28] = molecular target: Neu5Ac(a2-3)Gal(b1-3)GlcNAc(b1-6)GalNAc
# How it was run: as §1
# [29] = molecular target: Neu5Ac(a2-3)Gal(b1-3)GlcNAc6S
# How it was run: as §1
binder,measurement,setting,value
GS13814A-bth-462-26-462 (Bacteroides thetaiotaomicron) (protein) DDRDNLMVNDQIGLLHSTYTETEIFRGMDTPYQLFVIKSGKGKQETEVSISVDETVLQSYNTDNGTSIQLLPSDCYTILQPALRLNDSDYRKAFDIKWNADRLSDLLSTGKEYGLPIQMSVVQNFISADDERLKTIIVPTIKEPYLQMDVPGMSPVTDFMPTFGDLNERELFVKIRTNYSNDEDISFQIEVDPQLVIDYNTAHGTAYKMLPESSFTVDNKGVILTGMKETFIKIKYHKKGLIPEEGTYLFGDYVLPLRITSVSKYGISPDAASKLYTVKFQPDPIDKKGWSVIDFNNCCTQDGGWYLNMGWGVESLIDNNPGTQWLCRWDVKEPLPYYFVFDMGKEYTLFRFGFANPVAPAAHVWAGTSKAGYVEASIDNENWVKLKDWTSPKIGEPNVNMDVPATQARYIRFVITDTYPTYDGLRVSLGEVYAWGM,glycan array binding signal (z-score),Kdn(a2-3)Gal(b1-4)Glc,0.07
same,glycan array binding signal (z-score),Kdn(a2-3)Gal(b1-4)GlcNAc,0.169
same,glycan array binding signal (z-score),[1],-0.822
same,glycan array binding signal (z-score),Kdn(a2-6)Gal(b1-4)GlcNAc,0.037
same,glycan array binding signal (z-score),[2],-0.706
same,glycan array binding signal (z-score),[3],-0.535
same,glycan array binding signal (z-score),Man(a1-2)Man(a1-3)Man,-0.584
same,glycan array binding signal (z-score),[4],-1.72
same,glycan array binding signal (z-score),[5],0.035
same,glycan array binding signal (z-score),[6],0.254
same,glycan array binding signal (z-score),[7],-0.217
same,glycan array binding signal (z-score),[8],-0.301
same,glycan array binding signal (z-score),[9],-1.04
same,glycan array binding signal (z-score),Man(a1-3)[Man(a1-6)]Man,0.087
same,glycan array binding signal (z-score),[10],0.039
same,glycan array binding signal (z-score),[11],-1
same,glycan array binding signal (z-score),[12],1.06
same,glycan array binding signal (z-score),[13],-0.492
same,glycan array binding signal (z-score),[14],-0.273
same,glycan array binding signal (z-score),Man(a1-6)Man,0.563
same,glycan array binding signal (z-score),Man(b1-4)GlcNAc,-0.193
same,glycan array binding signal (z-score),MurNAc(b1-4)GlcNAc,0.025
same,glycan array binding signal (z-score),Neu5Ac(a2-3)Gal,-0.969
same,glycan array binding signal (z-score),[15],0.585
same,glycan array binding signal (z-score),[16],0.424
same,glycan array binding signal (z-score),[17],-0.6
same,glycan array binding signal (z-score),[18],-0.072
same,glycan array binding signal (z-score),[19],-0.355
same,glycan array binding signal (z-score),[20],0.144
same,glycan array binding signal (z-score),[21],-0.12
same,glycan array binding signal (z-score),[22],-0.943
same,glycan array binding signal (z-score),[23],-1.5
same,glycan array binding signal (z-score),[24],-0.709
same,glycan array binding signal (z-score),[25],-0.879
same,glycan array binding signal (z-score),[26],-0.186
same,glycan array binding signal (z-score),[27],-1.18
same,glycan array binding signal (z-score),[28],0.219
same,glycan array binding signal (z-score),[29],-0.386

# Some of the entries so far, as tab-separated lines.
binder	measurement	setting	value
GS13814A-bth-462-26-462 (Bacteroides thetaiotaomicron) (protein) DDRDNLMVNDQIGLLHSTYTETEIFRGMDTPYQLFVIKSGKGKQETEVSISVDETVLQSYNTDNGTSIQLLPSDCYTILQPALRLNDSDYRKAFDIKWNADRLSDLLSTGKEYGLPIQMSVVQNFISADDERLKTIIVPTIKEPYLQMDVPGMSPVTDFMPTFGDLNERELFVKIRTNYSNDEDISFQIEVDPQLVIDYNTAHGTAYKMLPESSFTVDNKGVILTGMKETFIKIKYHKKGLIPEEGTYLFGDYVLPLRITSVSKYGISPDAASKLYTVKFQPDPIDKKGWSVIDFNNCCTQDGGWYLNMGWGVESLIDNNPGTQWLCRWDVKEPLPYYFVFDMGKEYTLFRFGFANPVAPAAHVWAGTSKAGYVEASIDNENWVKLKDWTSPKIGEPNVNMDVPATQARYIRFVITDTYPTYDGLRVSLGEVYAWGM	glycan array binding signal (z-score)	[5]	0.035
same	glycan array binding signal (z-score)	[6]	0.254
